Experimental data from paper doi:10.1101/2024.06.16.599243.
Results are given in words; binding and its absence hold for the method and conditions named. In cells and extracts the contact can be indirect. Here binding means that the protein was enriched with, or labelled near, the bait; the list need not be complete. A no says only that the protein was not detected with the bait. Tags and fused reporters may be left off the sequences shown.

Protein sequences, listed by entry. Tags and fused reporters are not part of them.
UniProt Q6A070: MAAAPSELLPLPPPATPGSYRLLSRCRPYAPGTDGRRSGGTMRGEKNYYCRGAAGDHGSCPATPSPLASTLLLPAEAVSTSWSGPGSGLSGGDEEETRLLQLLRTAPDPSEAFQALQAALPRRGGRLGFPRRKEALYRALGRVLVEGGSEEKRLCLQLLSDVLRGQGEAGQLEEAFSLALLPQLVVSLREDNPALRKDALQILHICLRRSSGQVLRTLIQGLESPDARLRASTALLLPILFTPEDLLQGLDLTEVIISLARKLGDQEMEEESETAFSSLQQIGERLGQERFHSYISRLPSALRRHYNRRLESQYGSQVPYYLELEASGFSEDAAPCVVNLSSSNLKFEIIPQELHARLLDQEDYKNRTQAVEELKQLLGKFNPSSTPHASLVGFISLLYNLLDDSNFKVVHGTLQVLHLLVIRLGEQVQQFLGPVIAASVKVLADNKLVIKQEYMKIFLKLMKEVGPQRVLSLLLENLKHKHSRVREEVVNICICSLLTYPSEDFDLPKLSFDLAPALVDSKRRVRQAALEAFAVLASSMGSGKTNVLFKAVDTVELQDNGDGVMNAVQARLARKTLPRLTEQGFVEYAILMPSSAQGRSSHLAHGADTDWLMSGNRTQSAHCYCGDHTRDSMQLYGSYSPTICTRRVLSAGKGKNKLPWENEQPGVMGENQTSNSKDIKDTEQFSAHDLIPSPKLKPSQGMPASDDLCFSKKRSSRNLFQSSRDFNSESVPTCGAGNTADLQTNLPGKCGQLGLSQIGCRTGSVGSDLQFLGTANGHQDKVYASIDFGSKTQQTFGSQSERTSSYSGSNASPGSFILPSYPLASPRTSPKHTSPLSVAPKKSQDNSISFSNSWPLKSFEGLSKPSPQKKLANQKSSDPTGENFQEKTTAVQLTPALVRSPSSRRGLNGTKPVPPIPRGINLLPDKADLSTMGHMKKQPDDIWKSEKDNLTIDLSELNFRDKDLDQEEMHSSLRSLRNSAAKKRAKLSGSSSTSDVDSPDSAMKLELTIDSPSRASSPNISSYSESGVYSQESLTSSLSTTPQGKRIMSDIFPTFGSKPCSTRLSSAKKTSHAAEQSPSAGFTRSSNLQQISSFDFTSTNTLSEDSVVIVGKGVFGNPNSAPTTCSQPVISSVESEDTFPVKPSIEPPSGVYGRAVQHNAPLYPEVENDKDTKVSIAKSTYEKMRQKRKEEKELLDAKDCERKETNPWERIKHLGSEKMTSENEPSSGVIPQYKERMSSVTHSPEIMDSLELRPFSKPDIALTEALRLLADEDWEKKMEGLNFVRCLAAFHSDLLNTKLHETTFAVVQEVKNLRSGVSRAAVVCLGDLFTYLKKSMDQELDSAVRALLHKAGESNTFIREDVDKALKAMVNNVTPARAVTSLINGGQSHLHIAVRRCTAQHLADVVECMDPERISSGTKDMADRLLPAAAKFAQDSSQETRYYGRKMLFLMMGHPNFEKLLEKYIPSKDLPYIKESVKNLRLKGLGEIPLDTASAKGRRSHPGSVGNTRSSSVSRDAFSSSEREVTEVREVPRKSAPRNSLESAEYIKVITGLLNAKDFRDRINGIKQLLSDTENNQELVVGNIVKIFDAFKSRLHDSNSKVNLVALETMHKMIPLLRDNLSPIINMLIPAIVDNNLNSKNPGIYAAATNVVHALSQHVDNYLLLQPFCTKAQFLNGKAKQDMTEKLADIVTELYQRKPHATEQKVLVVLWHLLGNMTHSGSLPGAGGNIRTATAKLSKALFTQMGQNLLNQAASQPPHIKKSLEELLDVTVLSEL

T1: Flag-miniTurbo-CCDC66 (human) (UniProt A2RUB6)
T1 sequence: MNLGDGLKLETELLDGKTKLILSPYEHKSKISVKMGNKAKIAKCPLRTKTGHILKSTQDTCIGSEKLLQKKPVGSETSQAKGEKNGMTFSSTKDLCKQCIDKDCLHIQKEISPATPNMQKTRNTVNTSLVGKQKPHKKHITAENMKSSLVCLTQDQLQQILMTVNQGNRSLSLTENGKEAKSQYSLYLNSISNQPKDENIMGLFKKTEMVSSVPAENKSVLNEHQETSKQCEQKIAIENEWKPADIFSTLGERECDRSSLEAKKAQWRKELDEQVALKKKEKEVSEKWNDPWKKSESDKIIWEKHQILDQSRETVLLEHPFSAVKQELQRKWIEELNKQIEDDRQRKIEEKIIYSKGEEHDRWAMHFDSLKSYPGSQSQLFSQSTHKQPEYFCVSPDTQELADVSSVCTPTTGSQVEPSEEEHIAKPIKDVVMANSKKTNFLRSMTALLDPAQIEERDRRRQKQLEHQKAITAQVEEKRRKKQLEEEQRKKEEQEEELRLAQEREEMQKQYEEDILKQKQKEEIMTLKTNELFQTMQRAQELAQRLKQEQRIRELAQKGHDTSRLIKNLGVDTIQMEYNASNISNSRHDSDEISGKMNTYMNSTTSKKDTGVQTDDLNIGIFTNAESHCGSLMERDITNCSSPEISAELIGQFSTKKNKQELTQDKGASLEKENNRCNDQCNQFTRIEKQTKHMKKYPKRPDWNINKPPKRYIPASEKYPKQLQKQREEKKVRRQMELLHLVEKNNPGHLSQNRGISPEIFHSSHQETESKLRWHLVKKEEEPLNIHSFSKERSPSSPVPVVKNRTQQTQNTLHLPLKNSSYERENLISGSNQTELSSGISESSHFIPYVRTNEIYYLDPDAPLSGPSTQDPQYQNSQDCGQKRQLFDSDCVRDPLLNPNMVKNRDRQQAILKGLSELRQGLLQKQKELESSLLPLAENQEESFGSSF

B1: Histone deacetylase 6 (enzyme, UniProt Q9Z2V5 1-1149)
chain: MTSTGQDSSTRQRKSRHNPQSPLQESSATLKRGGKKCAVPHSSPNLAEVKKKGKMKKLSQPAEEDLVVGLQGLDLNPETRVPVGTGLVFDEQLNDFHCLWDDSFPESPERLHAIREQLILEGLLGRCVSFQARFAEKEELMLVHSLEYIDLMETTQYMNEGELRVLAETYDSVYLHPNSYSCACLATGSVLRLVDALMGAEIRNGMAVIRPPGHHAQHNLMDGYCMFNHLAVAARYAQKKHRIQRVLIVDWDVHHGQGTQFIFDQDPSVLYFSIHRYEHGRFWPHLKASNWSTIGFGQGQGYTINVPWNQTGMRDADYIAAFLHILLPVASEFQPQLVLVAAGFDALHGDPKGEMAATPAGFAHLTHLLMGLAGGKLILSLEGGYNLRALAKGVSASLHTLLGDPCPMLESCVVPCASAQTSIYCTLEALEPFWEVLERSVETQEEDEVEEAVLEEEEEEGGWEATALPMDTWPLLQNRTGLVYDEKMMSHCNLWDNHHPETPQRILRIMCHLEEVGLAARCLILPARPALDSELLTCHSAEYVEHLRTTEKMKTRDLHREGANFDSIYICPSTFACAKLATGAACRLVEAVLSGEVLNGIAVVRPPGHHAEPNAACGFCFFNSVAVAARHAQIIAGRALRILIVDWDVHHGNGTQHIFEDDPSVLYVSLHRYDRGTFFPMGDEGASSQVGRDAGIGFTVNVPWNGPRMGDADYLAAWHRLVLPIAYEFNPELVLISAGFDAAQGDPLGGCQVTPEGYAHLTHLLMGLAGGRIILILEGGYNLASISESMAACTHSLLGDPPPQLTLLRPPQSGALVSISEVIQVHRKYWRSLRLMKMEDKEECSSSRLVIKKLPPTASPVSAKEMTTPKGKVPEESVRKTIAALPGKESTLGQAKSKMAKAVLAQGQSSEQAAKGTTLDLATSKETVGGATTDLWASAAAPENFPNQTTSVEALGETEPTPPASHTNKQTTGASPLQGVTAQQSLQLGVLSTLELSREAEEAHDSEEGLLGEAAGGQDMNSLMLTQGFGDFNTQDVFYAVTPLSWCPHLMAVCPIPAAGLDVSQPCKTCGTVQENWVCLTCYQVYCSRYVNAHMVCHHEASEHPLVLSCVDLSTWCYVCQAYVHHEDLQDVKNAAHQNKFGEDMPHSH
B2: Cep104 (protein, UniProt Q80V31 1-926)
chain: MPHKIGFVVVSSSGHEDGFSARELMIHAPTVSGWRSPKFCQFPQEIVLQMVERCRVRKLQLLAHQYMISSKVEFYISESLPEYLVPYQAERFRRLGYVSLCDNEKTGCKARELKSVYVDAVGQFLKLIFHQNHANKYNIYNQVALVAINIIGDPADLGDESNITSREKLIDHYLGHSPHNPEDPALDGTFSGRSDYISPLDDLAFDMYQDPEVAQIIRRLDERKREAVKKERYDHAKKLKQAIADLQKVGERLGRYEVEKRCAVEKEDYDLAKEKKQQMARYRAQVYEQLELHGLLQGEPEMQRPFALPLQPLASPSSPQHWKAVSSLPRTEKLVAEDSFAGPVLQEKPSASSPQHSAVDPSPPAAGHAPRSHTEVLPYDERPLPVTRKQLGEASAEAEVKEADSDVRRRGVAGEPEPLTEKALREASAAIDTLGEALVAGAYSKMWSCREDALLALYKKLMEMPVGTQKEDLKNMLRASVFLIRRAIKDIVASVFQASLKLLKMIITQYIPKHKLGKLDTTHCVERAFPLLLARAGDSSARLRVMALNFIQEMALFKEVKSLQLIPSYLVQPLKANASVHLAMSQVDLLARLLRDLGTESSGFTVDNVMKFAVSALEHRVYEVRETAVRIILDMYRQHPALTLEHLPPDDSATRRNLLYKAIFEGFAKIDGSVLPTEAEVRAQKRVATKEAEKQKKEEMKALQGQSGELRETQAGVQEKESEAVKLRNQDPQGRKAVLPDTPEIPANHFLDNLCIFCGERNESFTEEGLDLHYWKHCLMLTRCDHCRQVVEISSLTEHLLTECDRRDGFGKCPRCSEAIPKEELPGHIKTKECSPAKPEKVANHCPLCHENFAPGEEAWKVHLMGPAGCTMNLRKTHVLYKATAPQQGKGPAAAKSSTSAPKVGSKIPTPKGGLSKSSSRTYMRR
B3: Armc9 (protein, UniProt Q9D2I5 1-817)
chain: MGDILAHESELLGLVKEYLDFAEFEDTLKTFSKECKVKGKPLCKNVGGPLKKDSKSLVIQRDLVAAFDSGDQKAFFDLWEGHIPSSVRDTDSLAQKLEFYLHIHFAIYLLKYCRGRPDKQELDKRISYFKTYLETKGAALSQTTEFLPFYALPFVPNPMVHPSFKELFQDSWTPELKLKLEKFLALTFKANNTPKLLTIYKENGPNSKELLQQLHQQLVEAERRAMTYLKRYNKIQADYHNLIGVTAELVDSLEATVSGKMITPEYLQSVCVRLFSNQMRQSLAHSVDFTRPGTASTMLRASLAPEKLKDVPLLPSLDYEKLKKDLIWGSDRLKAFLLQALRWRLTTSHPGEQRETVLQAYISNDLLDCHSHNQRSVLQLLHSKSEAVRQYMARLINALASLAEGRLYLAQNTKVLRMLEGRLKEEDKDVITRENVLGALQKFSLRRPLQTAMIRDGLIFWLIDLLKDPDCLSDYTLEYSVALLMNLCLRSAGKNMCAKVAGLMLKVLSDLLGHENHEIQPYVNGALYSILSIPSIREEARAMGMEDILRCFIKEGNAEMIRQIEFIIKQLNSEDLLDGVLESDDDEDEDDEEDHDIMEADLDKDELIQPQLGELSGEKLLTTEYLGIMTNTGKARRKGPASVQWSGDEPLRRPVTPGGHRTGCPVLGDHLISPQNAQQARNGCLRAMPVAHPDDYKEGKPGVTGCGTSSSFMDHKPREWSPAGHQKSRLVPTAALGWPREMTQDPSSGHITREFVPAFTCKPQVPSTPETVEQNPLKAKALSLAPQFSSSGPQQASRPASTASSTRGLHSSQSIRK
B4: Aurora kinase A (enzyme, UniProt P97477 1-395)
chain: MDRCKENCVSRPVKTTVPFGPKRVLVTEQIPSQNLGSASSGQAQRVLCPSNSQRVPSQAQKLGAGQKPAPKQLPAASVPRPVSRLNNPQKNEQPAASGNDSEKEQASLQKTEDTKKRQWTLEDFDIGRPLGKGKFGNVYLARERQSKFILALKVLFKTQLEKANVEHQLRREVEIQSHLRHPNILRLYGYFHDATRVYLILEYAPLGTVYRELQKLSKFDEQRTATYITELANALSYCHSKRVIHRDIKPENLLLGSNGELKIADFGWSVHAPSSRRTTMCGTLDYLPPEMIEGRMHDEKVDLWSLGVLCYEFLVGMPPFEAHTYQETYRRISRVEFTFPDFVTEGARDLISRLLKHNASQRLTLAEVLEHPWIKANSSKPPTGHTSKEPTSKSS
B5: CEP55 (protein, UniProt Q8BT07 1-462)
chain: MSSRSPKDLIKSKWGSRPSSSKSDTALEKFKGEIAAFKTSLDEITSGKGKMAEKGRSRLLEKIQVLEAEREKNVYYLLEKDKEIQRLKDHLRSRYSSSSLFEQLEEKTKECEKKQQLLESLSKETDVLKNQLSATTKRLSELESKASTLHLSQSMPANCFNSSMNSIHEKEMQLKDALEKNQQWLVYDQQREAYVKGLLAKIFELEKRTETAAASLTQQMKKIESEGYLQVEKQKYDHLLENAKKDLEVERQAVTQLRLELDEFRRKYEEARKEVEDLNQLLSSQRKADIQHLEEDKQKTERIQKLREESSIFKGKLEEERKRSEELLSQVRILYDSLLKHQEEQARVALLEQQMQACTLDFENEKLDRQNMQHQLYVILKELRKAKSQITQLESLKQLHGFTITEQPFPLQREPESRVKATSPKSPSAALNDSLVECPKCSVQYPATEHRDLLVHVEYCMK
B6: Cspp1 (protein, UniProt B2RX88 1-1205)
chain: MADSLDEFIEEQKAKLAKDKAELESDPPYMEMKGKASEKLSENSKILISMAKENIPPSSQQQPKGPLGIEYGLSLPLGEDYEQKKHKLKEELRQDYRRYLTQGITQAKRKKNFLSTGETDPSTLGVSLPIDERLSAKERLKLERNREYNQFLRGKAESTEKVRQVEKNIEPKSQRNKNPISQGKSDLPLQIQTAYTHSEGPWLSRQEEGLYRQLDGEIELRSRRPLKQTKEEVGISGAEHPSLSGSAGVPERRARRANGERVLDRQHCRADRDPGVSEDMDERFRFESDFDRRLLRVYTNGRPHGSRRGYVDGDDVPEEPNTQISAAENKSVHCNGPPRSADLDITSPFAGMLFGGEDRELTKRRKEKYRQELLEQIAEQQKKKRREKDLAFGITTSGVQDPEKSPDRLKQFSLTPRHFEEMPPERPRVAFQTPPPPFSAPSSPSVPPVHSAPSHNEDLHSGLGSTLGELAHPRVLPVPLNPPPPPLLAPPASNYRTPYDDAYYFYGARNTLDPNIVYYGSGMIGGQPAPHVSAPVTHQVAPPAVNTVGQNEQKVLSDGLRNSGLVFEDKPKPSTQSLQSYQEALQEQIREREARRKKERLEKEEYEAKLEAEMRIYNPWGKGGGGAPLRDAKGNLITDLNRMHRQNIDAYHNPDARTYEDKRAVVSIDQNLATSNAENLEDSANKNSGPLQTQSSPFARGNTFGEPLSELQIKQQELYKNFLRFQIEEKRQREEAEREKLRVAEEKEEKRLAEQRARIQQEYEEEQERRREKEEEQRLKNEELIRLAEERRKEAERKKKEEEEKHNLQLQHYYERENIIGDETKHLRQPSPVVPALQNKIASKLQRPPSVDTIISSFIHESSMSRAQSPPVPARKNQLRAEEEKKNVIMELSEMRKQLRSEERRLQGRLLHLDSDDEIPMRKRERNPMDIFDMARHRVQAPVRRPSPKGLDATTFQNIHDFNELRERDSDTRVDLRLMYPDPPRDHHTLEIQQQALLREQQKRLNRIKMRRDAGADLDTICTDNAQGRRMPRDDTNDFLKNSLLESDSAFIGAYGETYPVIEDNAFPPPSQLPSARERRRNKLKGLDFDSSRLHTPQDGLSLKSISSVNVDQVRMRNEDRMRRLTEQQKKPTNTDDEGSLVDPDDIMRHLSDDGRNSAATEPWLRPGTSESLKRFMAEHLNEEQHKGPGKPGTFTWQGLSAAHA

What follows are molecules tested against T1, Flag-miniTurbo-CCDC66 (human) (assay: proximity labelling).

binding | Molecule
binds | Togaram1 (from UniProt Q6A070 1-1776)
no binding | B1
binds | B2
binds | B3
no binding | B4
binds | B5
binds | B6
